Data published in publication PMC9654362.
These are yes or no findings as the source states them, for the method shown. Binding seen in cells or lysates may run through a third protein. Some entries that bind do so weakly or less than the wild type.

B1: Peroxiredoxin 6 (PRDX6), endogenous in HEK-293T (enzyme, UniProt P30041 1-224)
chain: MPGGLLLGDVAPNFEANTTVGRIRFHDFLGDSWGILFSHPRDFTPVCTTELGRAAKLAPEFAKRNVKLIALSIDSVEDHLAWSKDINAYNCEEPTEKLPFPIIDDRNRELAILLGMLDPAEKDEKGMPVTARVVFVFGPDKKLKLSILYPATTGRNFDEILRVVISLQLTAEKRVATPVDWKDGDSVMVLPTIPEEEAKKLFPKGVFTKELPSGKKYLRYTPQP
B2: Peroxiredoxin 6 (PRDX6), endogenous in NCI-H460 (enzyme, UniProt P30041 1-224)
chain: B1 chain

Key:
[1] = target: 3xFlag-FTH1 (ferritin heavy chain, H Ferritin subunit) (human) (UniProt P02794); experiment: co-IP; HEK-293T transfected with 3xFlag-FTH1 or 3xFlag control vector; lysates on ANTI-FLAG M2 affinity gel; Western blot with anti-PRDX6 and anti-Flag
[2] = target: endogenous FTH1 (ferritin heavy chain) (human (endogenous in HEK-293T)) (UniProt P02794); experiment: co-IP; endogenous proteins in wild-type HEK-293T; RIPA lysate incubated overnight at 4 °C with 1 ug anti-FTH1 antibody or non-immune serum, then Protein A/G plus-agarose; blot with anti-FTH1 or anti-PRDX6
[3] = target: 3xFlag-FTH1 (ferritin heavy chain) expressed in NCI-H460 cells (human) (UniProt P02794); experiment: co-IP; NCI-H460 transfected with Flag-FTH1 or 3x-Flag control vector; lysates on anti-Flag M2 resin; blot with anti-PRDX6 and anti-Flag

| Binder | binding [1] | binding [2] | binding [3] |
| --- | --- | --- | --- |
| B1 | binds | binds |  |
| B2 |  |  | binds |
